Results reported in US20040077828A1.
Results are given in words; binding and its absence hold for the method and conditions named. Some binding calls cover weakened binding; strength is not graded here.

Assays:
[1] = biological target: T1, bacterially expressed CRD of sFRP-1 (human) (UniProt Q8N474); test: ELISA, soluble RANKL on CRD-coated wells
T1 sequence: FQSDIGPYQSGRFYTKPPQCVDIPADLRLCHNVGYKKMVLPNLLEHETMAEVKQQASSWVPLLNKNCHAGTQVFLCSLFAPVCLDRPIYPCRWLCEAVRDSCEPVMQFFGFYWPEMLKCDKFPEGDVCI

Δ2-H/M = biological target: T2, Δ2-H/M; test: ELISA: wells coated with sFRP-1 or derivative, incubated with soluble RANKL, bound RANKL detected; triplicates
T2 sequence (single chain): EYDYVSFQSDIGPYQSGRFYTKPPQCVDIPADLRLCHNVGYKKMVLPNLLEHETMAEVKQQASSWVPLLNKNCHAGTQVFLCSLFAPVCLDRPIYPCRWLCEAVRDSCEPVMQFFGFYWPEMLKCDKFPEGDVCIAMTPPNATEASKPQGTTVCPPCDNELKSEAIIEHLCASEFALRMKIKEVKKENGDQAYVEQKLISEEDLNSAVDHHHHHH

[2] = biological target: T3, human sFRP-Δ1-M/H (Δ1 derivative of sFRP-1) (human); test: as above
T3 sequence: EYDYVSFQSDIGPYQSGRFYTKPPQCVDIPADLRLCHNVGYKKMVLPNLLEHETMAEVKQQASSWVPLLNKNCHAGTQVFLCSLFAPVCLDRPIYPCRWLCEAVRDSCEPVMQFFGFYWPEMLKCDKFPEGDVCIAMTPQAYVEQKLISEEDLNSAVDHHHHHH

[3] = biological target: T4, human sFRP-Δ3-M/H (Δ3 derivative of sFRP-1) (human); test: as above
T4 sequence: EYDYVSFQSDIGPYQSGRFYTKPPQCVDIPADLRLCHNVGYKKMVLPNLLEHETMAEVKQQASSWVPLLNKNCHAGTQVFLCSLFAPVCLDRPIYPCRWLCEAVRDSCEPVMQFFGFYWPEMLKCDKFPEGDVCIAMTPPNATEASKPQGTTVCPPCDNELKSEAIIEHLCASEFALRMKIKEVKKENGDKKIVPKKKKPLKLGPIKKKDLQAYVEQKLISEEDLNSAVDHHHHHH

[4] = biological target: T1, bacterially expressed CRD of sFRP-1 (human); test: ELISA, soluble RANKL on CRD-coated wells, Scatchard plot
[5] = biological target: T3, human sFRP-Δ1-M/H (Δ1 derivative of sFRP-1) (human); test: ELISA, soluble RANKL on wells coated with sFRP-1 deletion mutants (FIG. 12)
[6] = biological target: T1, bacterially expressed CRD of sFRP-1 (human); test: ELISA: soluble RANKL on wells coated with bacterially expressed CRD of sFRP-1
[7] = biological target: T1, bacterially expressed CRD of sFRP-1 (human); test: ELISA, soluble RANKL on coated wells
[8] = biological target: T5, recombinant soluble RANKL (PeproTech) (Homo sapiens (Human)) (UniProt O14788); test: ELISA
T5 sequence: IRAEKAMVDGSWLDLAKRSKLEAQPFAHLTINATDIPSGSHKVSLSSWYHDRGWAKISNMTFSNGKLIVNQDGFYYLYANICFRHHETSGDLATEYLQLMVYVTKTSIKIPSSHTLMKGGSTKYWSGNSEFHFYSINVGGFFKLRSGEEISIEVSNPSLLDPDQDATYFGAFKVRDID

Measured: binding

B1: recombinant soluble RANKL (PeproTech) (ligand)
chain: T5 sequence
not listed: [8]
binds: all other assays above

B2: recombinant mouse sFRP-2 (protein, UniProt P97299 25-295, looked up)
chain: LFLFGQPDFSYKRSNCKPIPANLQLCHGIEYQNMRLPNLLGHETMKEVLEQAGAWIPLVMKQCHPDTKKFLCSLFAPVCLDDLDETIQPCHSLCVQVKDRCAPVMSAFGFPWPDMLECDRFPQDNDLCIPLASSDHLLPATEEAPKVCEACKTKNEDDNDIMETLCKNDFALKIKVKEITYINRDTKIILETKSKTIYKLNGVSERDLKKSVLWLKDSLQCTCEEMNDINAPYLVMGQKQGGELVITSVKRWQKGQREFKRISRSIRKLQC
binds: [8]
